Patent US20140235649A1, “USE OF PHOSPHATASE INHIBITORS OR HISTONE DEACETYLASE INHIBITORS TO TREAT DISEASES CHARACTERIZED BY LOSS OF PROTEIN FUNCTION” (LIXTE BIOTECHNOLOGY, INC., priority 2011, published 2014)
At least one structure is not confirmed: it was looked up by name or label, or the drawing left a doubt.

Columns and labels:
Format in all cases: cell-based, human
ΔVHL-Y112N = ΔVHL-Y112N stability / half life, Western blot, 786-O cells; details: ΔVHL-Y112N (FIG. 10E)
Experimental: Microdissected tissue and cell pellets were lysed in RIPA lysis buffer (Thermo), sonicated and centrifuged. The quantity of protein was determined in the supernatant solution using a Bio-Rad Protein Assay Kit. Proteins were separated by NuPAGE 4-12% Bis-Tris gel (Invitrogen) and transferred to PVDF membranes (Invitrogen). Membranes were blocked in 5% skim dried milk and immunoblotted with primary antibody. Antibodies used for this study: Flag (1:2000, Origene), HA (1:1000, Origene), Ubiquitin (1:1000, Cell Signaling), Hsp70 (1:1000, Sigma), Hsp90 (1:1000, Cell Signaling), TCP1 (1:1000, Sigma), β-Actin (1:2000, Sigma).
VHL deficient cell line 786-O were maintained in Dulbecco's Modified Eagle Media (DMEM, Invitrogen) containing 10% FBS, 100 U/mL penicillin and 100 μg/mL streptomycin. Cells were transfected with VHL or HIF1/2 vectors by using Xtremegene 9 transfection reagent (Roche). For stable transfection, cells were incubated in growth medium supplemented with 0.5 mg/mL G-418 for 10 days followed by serial dilution. Monoclonal cells were collected and gene expression was tested through western blot.
Mutagenesis was performed using QuikChange Lightning Site-Directed Mutagenesis Kit (Agilent). Missense mutations were selected based on frequent mutations in the VHL syndrome. Mutations in the VHL gene were generated in pCMV6-Entry vectors with the full-length wild type VHL gene (Origene). […]

ΔSDHB-L65P = ΔSDHB-L65P protein half-life through CHX treatment, Western blot, HeLa cells
Experimental: Western blot analysis was performed as previously described with minor modifications (Zhuang et al, 2011). Microdissected tumor tissue and cell pellets were extracted for protein using RIPA lysis buffer supplemented with Halt proteinase inhibitor cocktail (Thermo Scientific, Rockford, Ill.). Protein was vortexed at 4° C. for 20 min and centrifuged in 12,000 g for 10 min at 4° C. Supernatant was collected and protein quantity was identified through a Bio-Rad (Hercules, Calif.) Protein Assay kit. Equal amount of proteins were separated on NuPAGE 4-12% Bis-Tris gel (Invitrogen, Carlsbad, Calif.) and transferred to PVDF membranes (Invitrogen). Membranes were blocked in 5% skim dried milk in PBST and blotted with primary antibody. Protein expression was identified through chemiluminescence kit (Thermo Scientific). The following antibodies were used: SDHA (1:1,000, Cell Signaling Technology, Beverly, Mass.), SDHB (1:1,000, Sigma-Aldrich, St. Louis Mo.), Flag (1:2,000, Origene, Rockville, Md.), Ubiquitin (1:1,000, Abcam, Cambridge, Mass.), HA (1:2,000, Origene), Hsp90 (1:1,000, Cell Signaling Technology) and β-Actin (1:1,000, Santa Cruz Biotechnology, Inc., Santa Cruz, Calif.).
HeLa cells were maintained in DMEM containing 10% FBS (Invitrogen). Cells were transfected with SDHB vectors by FuGENE 6 transfection reagent (Roche, Indianapolis, Ind.). […]

ΔGBA-N370S = experiment: Metabolic [35S] pulse chase assay, HeLa cells with ΔGBA-N370S vector; details: both N370S and L444P mutants
Experimental: Human GBA gene was cloned into pCMV6-Entry vector (Origene; Rockville, Md.). Mutagenesis was performed using a QuikChange Lightning Site-directed mutagenesis kit (Agilent; Santa Clara, Calif.). Mutagenesis reaction was conducted using primers with N370S and L444P mutation sites. For each mutant, the sequence of GBA genes was verified by sequencing the entire coding regions.
Metabolic [^35S] pulse chase assay was performed as previously described with minor modifications (16). A total of 5×10^5 HeLa cells were transfected with GBA vectors through FuGene 6 transfection reagent (Roche; Indianapolis, Ind.). Cells were used for pulse chase assay 24 hr after transfection. Cells were starved in methionine-depleted medium for 15 min followed by 15 min labeling in methionine-free Delbecco's modified Eagle medium (DMEM) supplemented with 10% FBS and 0.2 mCi/mL [^35S]-methionine ([…] specific activity, Perkin Elmer). The cells were then chased in DMEM with 10% FBS and 3 mg/mL methionine. Cells were extracted for protein within various durations after radioactive labeling. Cells were lysed in RIPA lysis buffer containing with Halt proteinase inhibitor cocktail (Thermo; Waltham, Mass.). […] Precipitated proteins were resolved on NuPAGE Novex 4-12% Bis-Tris Gel (Invitrogen; Carlesbad, Calif.) and measured by liquid scintillation counting. […]

CC1=C(O)C(=O)C=C2C1=CC=C1[C@@]2(C)CC[C@@]2(C)[C@@H]3C[C@](C)(C(=O)O)CC[C@]3(C)CC[C@]12C [celastrol]
stability / degradation of VHL mutant protein (ΔVHL-Y112N): decreased the degradation of VHL mutant protein | degradation / loss of mutant SDHB protein (ΔSDHB-L65P): stronger protein stabilization effect | GBA quantity (ΔGBA-N370S): increased GBA quantity
